Laboratory results published in PMC516168.
No constants are given. Whether binding was seen depends on the method and setting. Binding seen in cells or lysates may run through a third protein. Sequences can lack the tags named with a protein.

Biological target: T1, Mc-VHA-H fused to YFP (M. crystallinum) (UniProt Q8GUB3)
T1 sequence: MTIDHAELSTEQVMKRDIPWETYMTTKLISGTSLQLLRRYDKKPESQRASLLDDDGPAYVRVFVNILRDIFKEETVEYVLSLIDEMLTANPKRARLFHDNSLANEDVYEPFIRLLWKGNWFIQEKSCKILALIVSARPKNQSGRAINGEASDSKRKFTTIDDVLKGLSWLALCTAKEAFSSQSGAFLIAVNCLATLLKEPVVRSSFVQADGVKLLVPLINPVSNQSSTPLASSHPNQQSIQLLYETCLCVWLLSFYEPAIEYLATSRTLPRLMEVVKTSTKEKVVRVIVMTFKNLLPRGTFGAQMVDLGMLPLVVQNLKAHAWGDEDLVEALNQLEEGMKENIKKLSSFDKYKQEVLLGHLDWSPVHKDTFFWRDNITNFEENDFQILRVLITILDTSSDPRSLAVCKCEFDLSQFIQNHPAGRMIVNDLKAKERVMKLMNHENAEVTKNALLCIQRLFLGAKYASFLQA
Experiment: FRET or BRET; in vivo FRET (CFP donor, YFP acceptor) in co-transformed onion epidermis cells; emission spectra before and after photobleaching of the acceptor

binding: no binding
Substance: Mc-VHA-A fused to CFP (M. crystallinum)
